Data as given in PubChem BioAssay AID1159618 (Peter MacCallum Cancer Centre, 2016).
Here is one part, drawn at random, of 153 deposited reagents. Of all reagents, 111 (73%) were called active. 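Migration not corrected for cell number; some knock-downs also lowered nuclei counts, so reduced closure may partly reflect fewer cells.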 Entries without a mark were called inactive. Further read-outs or replicates are left out here. Not given: the time to read-out.

- Purpose: 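Find genes whose knock-down reduces blood or lymphatic endothelial cell migration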 (follow-up of hits)
- Cell system: human HMBEC blood microvascular and HDLEC dermal lymphatic endothelial cells
- Reagent: siRNA pool against human genes, 40 nM
- Measured: 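Automated imaging of scratched monolayers; area filled by migrating cells relative to the mean of mock-transfected wells, averaged over two replicates; nuclei also counted per well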
- Scale: migration vs mock, HMBEC and migration vs mock, HDLEC: higher = more migration into the scratch; nuclei count, HMBEC: higher = more cells
- Call rule: 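a knock-down counts as active if migrated area in either cell type is under 0.65 of the mock level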
- Calls: active = migration impaired; inactive = no change

| target | PubChem SID | cell type with impaired migration | migration vs mock, HMBEC | migration vs mock, HDLEC | nuclei count, HMBEC |
| --- | --- | --- | --- | --- | --- |
| PI4KA (GeneID 5297) | SID313053791 | no change in either cell type | 0.938 | 0.793 | 5310 |
| MTARC1 (GeneID 64757) | SID313053867 | no change in either cell type | 1.03 | 1.04 | 4688 |
| CSNK1G3 (GeneID 1456) | SID313053768 | no change in either cell type | 0.7 | 1.2 | 3816 |
| PLB1 (GeneID 151056) | SID313053887 | impaired only in blood endothelial cells (active) | 0.442 | 0.658 | 2890 |
| ATRAID (GeneID 51374) | SID313053849 | impaired in both blood and lymphatic cells (active) | 0.242 | 0.395 | 3190 |
| MYL7 (GeneID 58498) | SID313053861 | impaired only in blood endothelial cells (active) | 0.548 | 0.749 | 3745 |
| PKN2 (GeneID 5586) | SID313053796 | impaired only in blood endothelial cells (active) | 0.581 | 0.73 | 3478 |
| CALM2 (GeneID 805) | SID313053760 | no change in either cell type | 0.736 | 0.95 | 3762 |
| CATSPERT (GeneID 151254) | SID313053888 | no change in either cell type | 0.729 | 0.705 | 3685 |
| COPB2 (GeneID 9276) | SID313053817 | impaired in both blood and lymphatic cells (active) | 0.48 | 0.581 | 3260 |
| CYP1A1 (GeneID 1543) | SID313053769 | impaired in both blood and lymphatic cells (active) | 0.595 | 0.37 | 3656 |
| SF3B1 (GeneID 23451) | SID313053836 | impaired in both blood and lymphatic cells (active) | 0.302 | 0.278 | 3710 |
| FLG2 (GeneID 388698) | SID313053899 | impaired in both blood and lymphatic cells (active) | 0.462 | 0.536 | 2865 |
| TMEM121B (GeneID 27439) | SID313053845 | impaired in both blood and lymphatic cells (active) | 0.472 | 0.53 | 3193 |
| ITFG2 (GeneID 55846) | SID313053858 | impaired only in blood endothelial cells (active) | 0.581 | 0.669 | 3380 |
| LIMK1 (GeneID 3984) | SID313053785 | impaired only in lymphatic endothelial cells (active) | 0.743 | 0.62 | 4564 |
| JUN (GeneID 3725) | SID313053782 | impaired in both blood and lymphatic cells (active) | 0.451 | 0.632 | 3358 |
| PMVK (GeneID 10654) | SID313053828 | impaired in both blood and lymphatic cells (active) | 0.527 | 0.623 | 2923 |
| S1PR1 (GeneID 1901) | SID313053771 | impaired in both blood and lymphatic cells (active) | 0.367 | 0.497 | 2808 |
| EPOR (GeneID 2057) | SID313053773 | impaired in both blood and lymphatic cells (active) | 0.548 | 0.592 | 2967 |

A run of entries of the results above, as a working copy:
| target | PubChem SID | cell type with impaired migration | migration vs mock, HMBEC | migration vs mock, HDLEC | nuclei count, HMBEC |
| --- | --- | --- | --- | --- | --- |
| ATRAID (GeneID 51374) | SID313053849 | impaired in both blood and lymphatic cells (active) | 0.242 | 0.395 | 3190 |
| MYL7 (GeneID 58498) | SID313053861 | impaired only in blood endothelial cells (active) | 0.548 | 0.749 | 3745 |
| PKN2 (GeneID 5586) | SID313053796 | impaired only in blood endothelial cells (active) | 0.581 | 0.73 | 3478 |
